The exact form of at least one protein or probe is not confirmed. The comparison behind a weaker result is the experiment's own reference, which may not be listed here. For some assays here: Protein sequences can lack the tags named with them.
Tests used:
[1] = tested on: CsrA-Hetero (CsrA-WT-His6/CsrA-N55D-strep); assay: EMSA; settings: FliW added, shift pattern resembles wild type, inhibition; 40 mM Tris-HCl pH 7.5, 4 mM MgCl2, 100 mM KCl, 20 ng/ul yeast RNA, 20 mM DTT, 10% glycerol, 4 U RNase inhibitor, 20 pM RNA, 37 C 30 min (FliW added for a further 5 min); recombinant protein; protein details: His6 (WT chain), Strep-tag (N55D chain); label: internal 32P ([alpha-32P]ATP); probe letters rebuilt from the primers and the genome
CsrA-WT-His6 = target: T1, CsrA-WT-His6 (UniProt P33911); assay: EMSA; settings: FliW added, CsrA-bound RNA reduced at roughly equimolar FliW; 40 mM Tris-HCl pH 7.5, 4 mM MgCl2, 100 mM KCl, 20 ng/ul yeast RNA, 20 mM DTT, 10% glycerol, 4 U RNase inhibitor, 20 pM RNA, 37 C 30 min (FliW added for a further 5 min); recombinant protein; residues 1-74; protein details: His6; label: internal 32P ([alpha-32P]ATP); probe letters rebuilt from the primers and the genome
T1 sequence (looked up): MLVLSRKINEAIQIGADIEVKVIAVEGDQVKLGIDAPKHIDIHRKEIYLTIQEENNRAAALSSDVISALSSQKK

“GGUAGCCGGGAGGAGGCGCAAAAGACUCAGCCAGUUACAAAAUAAGGGCACAAGGACGUGCCUUAACAACAUAUUCAGGGAGGAACAAAACAAUGAGAAUU [hag 5' UTR transcript +1 to +100]”: binds more weakly [1]; binds more weakly (CsrA-WT-His6).
